The results in this text go back to US20220047687A1, “CHEMICAL SCALPEL” (FUNDACIÓN INSTITUTO DE INVESTIGACIÓN SANITARIA FUNDACIÓN …, priority 2019, published 2022).

This data set has as its system mesothelial layer covering the intestinal tract. Put plainly: First tests of peritoneal washing with collagenase on rat (Wistar). It is filed as in vivo. The settings on record: Wistar rats. How it is done:
For the purpose of fine-tuning the volume of the cavity and the optimum treatment time so that no organ in the cavity will sustain any damage, twenty 6-week old Wistar rats weighing 250 grams were used, and they were tested at different concentrations of 35 U/mL of collagenase and 37 U/mL of collagenase for clinical use. Up until now, all the studies had been performed with collagenase for experimental use, nevertheless, the choice was made to use collagenase authorized for clinical use from now on, taking into account the potency equivalence calculations requested from the manufacturer. A study was then conducted using different times of treatment with collagenase from 2 minutes to 30 minutes (30, 20, 15, 10, 5, and 2) with n=2 in the 4 intermediate times.

On to Collagenase, for which the “ideal concentration of collagenase” value is 35 U/mL. Moreover, for the setting “35 U/mL”, the best treatment time lay in the range of 10 to 15 min.
